This is one part of the list. Hit calls seldom repeat between salt and free forms of one compound.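 Kinases, fused to nanoluciferase, were expressed in K562 cells; luminescence was measured every 4 h from 2 to 18 h as percent of control (DMSO = 100%, positive control = 0%). A time point is decreased if signal falls significantly (2 sigma). Hits were called by the authors by a rule that is not shown; the count of time points alone does not decide it.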
Key:
Experiment in all cases: kinase-Nluc reporter destabilization hit call (1 = scored as downregulated) (binary); higher = compound decreases kinase abundance
Conditions in all cases: K562; 2-18 h
[1] = target: CDK7 (UniProt P50613)
[2] = target: CDK9 (UniProt P50750)
[3] = target: CHEK2 (UniProt O96017)
[4] = target: CSF1R (UniProt P07333)
[5] = target: CSK (UniProt P41240)
[6] = target: CSNK1A1 (UniProt P48729)
[7] = target: CSNK1D (UniProt P48730)
[8] = target: DDR1 (UniProt Q08345)
[9] = target: DYRK1B (UniProt Q9Y463)
[10] = target: DYRK2 (UniProt Q92630)
[11] = target: EGFR (UniProt P00533)
[12] = target: EGFR_G719S (UniProt P00533)
[13] = target: EGFR_G719S_T790M (UniProt P00533)
[14] = target: EGFR_L718V (UniProt P00533)
[15] = target: EGFR_L858R (UniProt P00533)
[16] = target: EGFR_L861Q (UniProt P00533)
[17] = target: EGFR_T790M (UniProt P00533)
[18] = target: EPHA2 (UniProt P29317)
[19] = target: ERBB3 (UniProt P21860)
[20] = target: ERBB4_R711C (clone: ERBB4_mut) (UniProt Q15303)

Chains of the proteins cited; added tags and fusions are not shown. Lines headed by an entry give the natural chain unless they say otherwise; changes in a name come on top.
UniProt P50613: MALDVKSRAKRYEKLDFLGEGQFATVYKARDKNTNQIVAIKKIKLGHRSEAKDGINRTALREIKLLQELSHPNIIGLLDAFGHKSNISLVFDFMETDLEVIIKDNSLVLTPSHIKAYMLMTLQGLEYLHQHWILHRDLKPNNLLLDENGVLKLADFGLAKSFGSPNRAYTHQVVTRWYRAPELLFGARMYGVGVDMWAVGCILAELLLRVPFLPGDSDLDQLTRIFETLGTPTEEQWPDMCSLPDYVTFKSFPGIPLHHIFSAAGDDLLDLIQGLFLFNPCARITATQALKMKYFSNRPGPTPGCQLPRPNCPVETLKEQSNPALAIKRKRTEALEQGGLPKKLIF
UniProt P50750, whole entry: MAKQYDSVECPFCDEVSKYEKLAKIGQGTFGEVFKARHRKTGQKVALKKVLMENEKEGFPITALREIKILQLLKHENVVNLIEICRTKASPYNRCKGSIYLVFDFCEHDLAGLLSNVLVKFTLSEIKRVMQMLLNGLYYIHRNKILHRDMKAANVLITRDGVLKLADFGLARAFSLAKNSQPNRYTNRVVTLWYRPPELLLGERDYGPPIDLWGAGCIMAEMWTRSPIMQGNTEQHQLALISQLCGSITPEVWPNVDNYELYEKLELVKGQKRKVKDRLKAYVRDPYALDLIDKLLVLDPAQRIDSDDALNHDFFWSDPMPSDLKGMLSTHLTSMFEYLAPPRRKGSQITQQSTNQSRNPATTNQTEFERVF
UniProt O96017, whole entry: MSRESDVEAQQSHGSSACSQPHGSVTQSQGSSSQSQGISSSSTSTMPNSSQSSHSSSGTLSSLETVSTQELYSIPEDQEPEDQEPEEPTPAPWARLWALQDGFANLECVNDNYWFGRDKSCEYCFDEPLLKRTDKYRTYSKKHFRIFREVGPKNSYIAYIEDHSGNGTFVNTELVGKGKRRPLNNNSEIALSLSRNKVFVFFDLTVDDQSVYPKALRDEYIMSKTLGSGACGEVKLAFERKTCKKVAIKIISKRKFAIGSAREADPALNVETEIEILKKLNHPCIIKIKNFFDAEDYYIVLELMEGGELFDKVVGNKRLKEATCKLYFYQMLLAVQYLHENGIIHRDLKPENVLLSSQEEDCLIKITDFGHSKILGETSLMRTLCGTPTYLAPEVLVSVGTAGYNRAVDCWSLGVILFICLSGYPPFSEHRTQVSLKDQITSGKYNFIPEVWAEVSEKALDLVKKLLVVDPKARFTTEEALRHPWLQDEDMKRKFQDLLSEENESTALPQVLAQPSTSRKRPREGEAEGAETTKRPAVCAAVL
UniProt P41240: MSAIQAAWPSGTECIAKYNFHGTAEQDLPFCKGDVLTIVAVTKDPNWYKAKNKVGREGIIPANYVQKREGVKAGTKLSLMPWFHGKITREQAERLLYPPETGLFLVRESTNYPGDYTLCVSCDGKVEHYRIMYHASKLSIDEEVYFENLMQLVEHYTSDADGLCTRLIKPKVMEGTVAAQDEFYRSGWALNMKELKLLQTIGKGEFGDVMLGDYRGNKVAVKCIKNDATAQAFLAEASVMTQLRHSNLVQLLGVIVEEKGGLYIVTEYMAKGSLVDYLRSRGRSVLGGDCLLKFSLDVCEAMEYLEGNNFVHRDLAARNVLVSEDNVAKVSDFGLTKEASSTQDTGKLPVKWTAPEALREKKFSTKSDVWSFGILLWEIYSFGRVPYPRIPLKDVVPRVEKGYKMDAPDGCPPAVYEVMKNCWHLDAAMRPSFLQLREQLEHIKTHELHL
UniProt P48729: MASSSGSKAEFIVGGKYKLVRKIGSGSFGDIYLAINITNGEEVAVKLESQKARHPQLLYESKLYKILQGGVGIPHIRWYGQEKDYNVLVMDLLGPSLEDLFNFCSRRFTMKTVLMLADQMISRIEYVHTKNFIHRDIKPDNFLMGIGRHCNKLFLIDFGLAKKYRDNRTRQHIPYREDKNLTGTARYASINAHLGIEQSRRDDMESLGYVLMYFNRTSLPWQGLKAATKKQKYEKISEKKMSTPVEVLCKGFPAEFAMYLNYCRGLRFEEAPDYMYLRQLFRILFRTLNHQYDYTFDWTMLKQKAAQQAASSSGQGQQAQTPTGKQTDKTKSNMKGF
UniProt P48730: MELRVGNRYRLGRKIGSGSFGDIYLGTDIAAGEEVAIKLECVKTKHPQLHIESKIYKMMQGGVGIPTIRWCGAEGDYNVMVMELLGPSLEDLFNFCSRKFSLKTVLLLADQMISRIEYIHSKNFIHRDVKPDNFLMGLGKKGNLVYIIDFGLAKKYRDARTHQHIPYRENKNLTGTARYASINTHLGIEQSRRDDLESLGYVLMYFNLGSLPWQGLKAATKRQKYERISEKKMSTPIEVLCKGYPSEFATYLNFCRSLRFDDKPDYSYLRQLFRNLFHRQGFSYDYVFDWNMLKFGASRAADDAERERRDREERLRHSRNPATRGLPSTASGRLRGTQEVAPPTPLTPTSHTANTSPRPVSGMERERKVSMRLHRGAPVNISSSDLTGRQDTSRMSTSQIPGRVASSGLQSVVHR
UniProt Q08345: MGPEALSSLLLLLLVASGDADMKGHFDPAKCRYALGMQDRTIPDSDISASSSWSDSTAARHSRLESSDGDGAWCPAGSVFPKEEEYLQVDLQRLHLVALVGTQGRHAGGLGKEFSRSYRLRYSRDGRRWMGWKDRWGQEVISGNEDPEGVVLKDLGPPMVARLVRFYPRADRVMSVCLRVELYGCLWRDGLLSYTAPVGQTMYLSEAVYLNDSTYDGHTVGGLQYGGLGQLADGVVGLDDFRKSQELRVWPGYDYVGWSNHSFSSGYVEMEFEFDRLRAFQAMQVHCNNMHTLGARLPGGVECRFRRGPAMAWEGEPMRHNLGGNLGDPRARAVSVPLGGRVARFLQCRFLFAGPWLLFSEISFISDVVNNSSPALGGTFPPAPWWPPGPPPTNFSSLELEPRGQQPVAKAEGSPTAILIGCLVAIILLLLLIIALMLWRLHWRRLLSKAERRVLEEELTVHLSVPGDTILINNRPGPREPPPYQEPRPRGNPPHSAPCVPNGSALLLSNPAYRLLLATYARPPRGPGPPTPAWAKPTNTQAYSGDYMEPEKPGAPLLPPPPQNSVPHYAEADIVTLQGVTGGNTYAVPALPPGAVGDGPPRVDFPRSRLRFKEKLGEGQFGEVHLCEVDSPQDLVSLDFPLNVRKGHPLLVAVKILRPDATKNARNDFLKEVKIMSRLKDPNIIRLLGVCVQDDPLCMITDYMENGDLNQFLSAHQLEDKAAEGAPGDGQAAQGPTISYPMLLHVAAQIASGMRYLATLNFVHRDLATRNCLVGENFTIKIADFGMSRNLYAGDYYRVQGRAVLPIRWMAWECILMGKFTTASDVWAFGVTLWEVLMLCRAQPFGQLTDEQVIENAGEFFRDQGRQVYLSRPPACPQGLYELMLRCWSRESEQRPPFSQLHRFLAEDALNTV
UniProt Q92630: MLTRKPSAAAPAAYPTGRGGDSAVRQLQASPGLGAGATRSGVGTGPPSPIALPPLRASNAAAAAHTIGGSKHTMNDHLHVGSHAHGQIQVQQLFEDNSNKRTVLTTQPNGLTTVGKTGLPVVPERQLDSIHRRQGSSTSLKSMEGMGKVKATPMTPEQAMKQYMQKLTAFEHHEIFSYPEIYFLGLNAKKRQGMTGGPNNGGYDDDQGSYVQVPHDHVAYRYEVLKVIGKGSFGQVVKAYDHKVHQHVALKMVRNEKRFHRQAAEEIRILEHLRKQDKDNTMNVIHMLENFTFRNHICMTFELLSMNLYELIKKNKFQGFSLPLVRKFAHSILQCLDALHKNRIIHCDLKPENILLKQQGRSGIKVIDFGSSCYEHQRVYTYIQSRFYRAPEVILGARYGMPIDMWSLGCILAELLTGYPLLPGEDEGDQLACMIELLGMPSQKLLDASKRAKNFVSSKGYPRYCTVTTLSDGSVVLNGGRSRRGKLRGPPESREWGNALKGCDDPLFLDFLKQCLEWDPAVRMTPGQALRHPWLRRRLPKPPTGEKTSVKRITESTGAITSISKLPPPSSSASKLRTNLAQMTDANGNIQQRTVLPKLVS
UniProt P29317, whole entry: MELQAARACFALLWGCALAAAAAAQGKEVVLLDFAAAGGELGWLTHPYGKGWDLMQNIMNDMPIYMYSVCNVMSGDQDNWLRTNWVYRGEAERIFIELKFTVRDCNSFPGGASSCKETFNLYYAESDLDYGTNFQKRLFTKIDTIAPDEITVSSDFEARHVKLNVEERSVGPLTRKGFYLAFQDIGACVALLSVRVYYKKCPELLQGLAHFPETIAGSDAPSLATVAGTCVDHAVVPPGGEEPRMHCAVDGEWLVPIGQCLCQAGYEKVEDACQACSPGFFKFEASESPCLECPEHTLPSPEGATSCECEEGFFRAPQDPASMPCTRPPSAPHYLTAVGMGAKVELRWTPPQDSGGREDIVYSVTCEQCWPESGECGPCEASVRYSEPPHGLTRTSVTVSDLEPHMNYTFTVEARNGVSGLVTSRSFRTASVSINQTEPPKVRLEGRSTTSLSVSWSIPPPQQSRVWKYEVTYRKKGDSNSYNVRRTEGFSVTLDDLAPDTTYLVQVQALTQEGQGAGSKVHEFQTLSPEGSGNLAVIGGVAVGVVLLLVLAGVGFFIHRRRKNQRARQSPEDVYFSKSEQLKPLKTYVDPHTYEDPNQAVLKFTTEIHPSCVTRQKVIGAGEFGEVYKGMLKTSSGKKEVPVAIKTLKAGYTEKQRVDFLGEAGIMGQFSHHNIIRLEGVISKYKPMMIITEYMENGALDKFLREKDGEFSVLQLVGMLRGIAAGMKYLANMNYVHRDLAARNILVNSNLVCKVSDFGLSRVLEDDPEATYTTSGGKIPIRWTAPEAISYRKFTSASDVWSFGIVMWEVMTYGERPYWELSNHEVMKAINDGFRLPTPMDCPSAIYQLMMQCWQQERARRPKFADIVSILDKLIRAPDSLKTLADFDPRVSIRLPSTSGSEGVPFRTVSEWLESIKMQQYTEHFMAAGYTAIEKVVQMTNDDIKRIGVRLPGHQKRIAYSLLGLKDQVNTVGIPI
UniProt P21860, whole entry: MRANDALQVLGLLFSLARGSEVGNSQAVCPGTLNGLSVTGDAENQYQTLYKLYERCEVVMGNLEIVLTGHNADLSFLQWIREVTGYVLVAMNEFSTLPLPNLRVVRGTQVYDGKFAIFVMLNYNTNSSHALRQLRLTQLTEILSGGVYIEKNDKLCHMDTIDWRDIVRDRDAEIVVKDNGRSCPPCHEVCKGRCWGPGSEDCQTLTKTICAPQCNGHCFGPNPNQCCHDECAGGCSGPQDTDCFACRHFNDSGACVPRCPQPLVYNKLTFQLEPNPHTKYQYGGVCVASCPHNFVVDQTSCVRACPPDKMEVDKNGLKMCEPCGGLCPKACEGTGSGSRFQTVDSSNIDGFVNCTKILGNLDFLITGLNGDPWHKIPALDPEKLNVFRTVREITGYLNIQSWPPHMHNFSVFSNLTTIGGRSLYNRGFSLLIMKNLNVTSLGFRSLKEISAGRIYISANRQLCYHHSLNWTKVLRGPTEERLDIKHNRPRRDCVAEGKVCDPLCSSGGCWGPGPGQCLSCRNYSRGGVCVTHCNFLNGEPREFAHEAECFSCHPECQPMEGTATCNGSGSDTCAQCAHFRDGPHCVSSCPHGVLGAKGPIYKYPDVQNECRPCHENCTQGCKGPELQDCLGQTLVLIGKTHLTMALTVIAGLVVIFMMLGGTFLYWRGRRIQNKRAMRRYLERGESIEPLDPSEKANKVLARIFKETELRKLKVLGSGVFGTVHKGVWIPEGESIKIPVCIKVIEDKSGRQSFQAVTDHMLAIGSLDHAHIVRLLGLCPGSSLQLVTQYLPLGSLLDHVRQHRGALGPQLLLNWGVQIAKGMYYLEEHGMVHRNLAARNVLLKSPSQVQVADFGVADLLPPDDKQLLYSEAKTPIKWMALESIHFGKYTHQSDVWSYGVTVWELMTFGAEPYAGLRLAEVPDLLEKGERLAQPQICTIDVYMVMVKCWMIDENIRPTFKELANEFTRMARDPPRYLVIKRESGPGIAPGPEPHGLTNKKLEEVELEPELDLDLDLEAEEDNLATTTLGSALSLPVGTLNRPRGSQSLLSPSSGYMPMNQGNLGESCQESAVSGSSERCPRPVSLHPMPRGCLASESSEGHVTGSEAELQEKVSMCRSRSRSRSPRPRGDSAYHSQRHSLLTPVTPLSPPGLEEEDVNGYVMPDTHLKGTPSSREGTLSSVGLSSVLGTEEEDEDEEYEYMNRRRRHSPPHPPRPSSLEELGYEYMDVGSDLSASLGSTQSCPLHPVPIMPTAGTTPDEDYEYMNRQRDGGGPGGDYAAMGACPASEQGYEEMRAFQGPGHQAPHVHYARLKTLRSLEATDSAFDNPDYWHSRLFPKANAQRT

Measured: kinase-Nluc reporter destabilization hit call

COc1cc(N2CCN(C)CC2)ccc1Nc1ncc2c(n1)N(C1CCC1)C(=O)N(c1c(C)cccc1C)C2 (2.5 µM)
inactive: [1] 0 | [2] 0 | [3] 0 | [4] 0 | [5] 0 | [6] 0 | [7] 0 | [8] 0 | [9] 0 | [10] 0 | [11] 0 | [12] 0 | [13] 0 | [14] 0 | [15] 0 | [16] 0 | [17] 0 | [18] 0 | [19] 0 | [20] 0

N#CC(c1ccnc(NCCc2cccnc2)n1)c1nc2ccccc2s1 (stereo not given) (10 µM)
inactive: [1] 0 | [2] 0 | [3] 0 | [4] 0 | [5] 0 | [6] 0 | [7] 0 | [8] 0 | [9] 0 | [10] 0 | [11] 0 | [12] 0 | [13] 0 | [14] 0 | [15] 0 | [16] 0 | [17] 0 | [18] 0 | [19] 0 | [20] 0

O=C(Nc1nc2ccccc2[nH]1)c1cccc(-n2cccc2)c1 (10 µM)
inactive: [1] 0 | [2] 0 | [3] 0 | [4] 0 | [5] 0 | [6] 0 | [7] 0 | [8] 0 | [9] 0 | [10] 0 | [11] 0 | [12] 0 | [13] 0 | [14] 0 | [15] 0 | [16] 0 | [17] 0 | [18] 0 | [19] 0 | [20] 0

COc1ccc2c(c1O)OC(C)(C)c1c-2ccc2c1C(=O)N(c1ccc(C(=O)c3ccccc3)cc1)C2=O [Ampkinone] (10 µM)
inactive: [1] 0 | [2] 0 | [3] 0 | [4] 0 | [5] 0 | [6] 0 | [7] 0 | [8] 0 | [9] 0 | [10] 0 | [11] 0 | [12] 0 | [13] 0 | [14] 0 | [15] 0 | [16] 0 | [17] 0 | [18] 0 | [19] 0 | [20] 0

CC(C)NC(=O)N1CC[C@H](NC2=Nc3cc(F)ccc3N(CC(F)F)c3ccc(Cl)cc32)C1 (10 µM)
inactive: [1] 0 | [2] 0 | [3] 0 | [4] 0 | [5] 0 | [6] 0 | [7] 0 | [8] 0 | [9] 0 | [10] 0 | [11] 0 | [12] 0 | [13] 0 | [14] 0 | [15] 0 | [16] 0 | [17] 0 | [18] 0 | [19] 0 | [20] 0

2 entries picked at random from the list so far, as already listed:
N#CC(c1ccnc(NCCc2cccnc2)n1)c1nc2ccccc2s1 (stereo not given) (10 µM)
inactive: [1] 0 | [2] 0 | [3] 0 | [4] 0 | [5] 0 | [6] 0 | [7] 0 | [8] 0 | [9] 0 | [10] 0 | [11] 0 | [12] 0 | [13] 0 | [14] 0 | [15] 0 | [16] 0 | [17] 0 | [18] 0 | [19] 0 | [20] 0

CC(C)NC(=O)N1CC[C@H](NC2=Nc3cc(F)ccc3N(CC(F)F)c3ccc(Cl)cc32)C1 (10 µM)
inactive: [1] 0 | [2] 0 | [3] 0 | [4] 0 | [5] 0 | [6] 0 | [7] 0 | [8] 0 | [9] 0 | [10] 0 | [11] 0 | [12] 0 | [13] 0 | [14] 0 | [15] 0 | [16] 0 | [17] 0 | [18] 0 | [19] 0 | [20] 0

Remaining list, next part.

Cc1ccc(S(=O)(=O)/C=C/C#N)cc1 (10 µM)
inactive: [1] 0 | [2] 0 | [3] 0 | [4] 0 | [5] 0 | [6] 0 | [7] 0 | [8] 0 | [9] 0 | [10] 0 | [11] 0 | [12] 0 | [13] 0 | [14] 0 | [15] 0 | [16] 0 | [17] 0 | [18] 0 | [19] 0 | [20] 0

COc1cccc(-n2c(=O)[nH]c3cc(Cl)n(-c4ccc(-c5cccc(OC)c5O)cc4)c3c2=O)c1 (2.5 µM)
inactive: [1] 0 | [2] 0 | [3] 0 | [4] 0 | [5] 0 | [6] 0 | [7] 0 | [8] 0 | [9] 0 | [10] 0 | [11] 0 | [12] 0 | [13] 0 | [14] 0 | [15] 0 | [16] 0 | [17] 0 | [18] 0 | [19] 0 | [20] 0

CCN1CCN(Cc2ccc(Nc3ncc(F)c(-c4cc(F)c5nc(CO)n(C(C)C)c5c4)n3)nc2)CC1 [Abemaciclib metabolite M20] (2 µM)
inactive: [1] 0 | [2] 0 | [3] 0 | [4] 0 | [5] 0 | [6] 0 | [7] 0 | [8] 0 | [9] 0 | [10] 0 | [11] 0 | [12] 0 | [13] 0 | [14] 0 | [15] 0 | [16] 0 | [17] 0 | [18] 0 | [19] 0 | [20] 0

C=C(CCC=C(C)C)[C@H]1CC[C@]2(C)[C@@H]1[C@H](O)C[C@@H]1[C@@]3(C)CC[C@H](O[C@@H]4O[C@H](CO)[C@@H](O)[C@H](O)[C@H]4O[C@@H]4O[C@H](CO)[C@@H](O)[C@H](O)[C@H]4O)C(C)(C)[C@@H]3CC[C@]12C [Ginsenoside Rk1] (10 µM)
inactive: [1] 0 | [2] 0 | [3] 0 | [4] 0 | [5] 0 | [6] 0 | [7] 0 | [8] 0 | [9] 0 | [10] 0 | [11] 0 | [12] 0 | [13] 0 | [14] 0 | [15] 0 | [16] 0 | [17] 0 | [18] 0 | [19] 0 | [20] 0

O=C(Nc1cccnc1)c1cc(C(=O)c2c(F)cccc2Br)c[nH]1 (10 µM)
inactive: [1] 0 | [2] 0 | [3] 0 | [4] 0 | [5] 0 | [6] 0 | [7] 0 | [8] 0 | [9] 0 | [10] 0 | [11] 0 | [12] 0 | [13] 0 | [14] 0 | [15] 0 | [16] 0 | [17] 0 | [18] 0 | [19] 0 | [20] 0

CC(C)=CCC[C@](C)(O[C@@H]1O[C@H](CO)[C@@H](O)[C@H](O)[C@H]1O)[C@H]1CC[C@]2(C)[C@@H]1[C@H](O)C[C@@H]1[C@@]3(C)CC[C@H](O)C(C)(C)[C@@H]3[C@@H](O[C@@H]3O[C@H](CO)[C@@H](O)[C@H](O)[C@H]3O[C@@H]3O[C@@H](C)[C@H](O)[C@@H](O)[C@H]3O)C[C@]12C [Ginsenoside Re] (10 µM)
inactive: [1] 0 | [2] 0 | [3] 0 | [4] 0 | [5] 0 | [6] 0 | [7] 0 | [8] 0 | [9] 0 | [10] 0 | [11] 0 | [12] 0 | [13] 0 | [14] 0 | [15] 0 | [16] 0 | [17] 0 | [18] 0 | [19] 0 | [20] 0

CC(C)=CC[C@H](O)C1=CC(=O)c2c(O)ccc(O)c2C1=O [(-)-Alkannin] (2.5 µM)
inactive: [1] 0 | [2] 0 | [3] 0 | [4] 0 | [5] 0 | [6] 0 | [7] 0 | [8] 0 | [9] 0 | [10] 0 | [11] 0 | [12] 0 | [13] 0 | [14] 0 | [15] 0 | [16] 0 | [17] 0 | [18] 0 | [19] 0 | [20] 0

COc1ccc(C2CC(c3ccccc3)=NN2c2ccc(S(N)(=O)=O)cc2)cc1 (stereo not given) (10 µM)
inactive: [1] 0 | [2] 0 | [3] 0 | [4] 0 | [5] 0 | [6] 0 | [7] 0 | [8] 0 | [9] 0 | [10] 0 | [11] 0 | [12] 0 | [13] 0 | [14] 0 | [15] 0 | [16] 0 | [17] 0 | [18] 0 | [19] 0 | [20] 0

COc1ccc(Cl)cc1NC(=O)Nc1cc(C)nc2ccccc12 (2.5 µM)
inactive: [1] 0 | [2] 0 | [3] 0 | [4] 0 | [5] 0 | [6] 0 | [7] 0 | [8] 0 | [9] 0 | [10] 0 | [11] 0 | [12] 0 | [13] 0 | [14] 0 | [15] 0 | [16] 0 | [17] 0 | [18] 0 | [19] 0 | [20] 0

CN1CCN(c2ccc(Nc3ncc4nc(Nc5ccccc5)n([C@@H]5CCN(S(=O)(=O)C6CC6)C5)c4n3)cc2)CC1 (2.5 µM)
inactive: [1] 0 | [2] 0 | [3] 0 | [4] 0 | [5] 0 | [6] 0 | [7] 0 | [8] 0 | [9] 0 | [10] 0 | [11] 0 | [12] 0 | [13] 0 | [14] 0 | [15] 0 | [16] 0 | [17] 0 | [18] 0 | [19] 0 | [20] 0

Cc1noc(C)c1-c1ccc(-c2cc(C(N)=O)c(NC(N)=O)s2)c(O[C@H]2CCNC2)c1 (10 µM)
inactive: [1] 0 | [2] 0 | [3] 0 | [4] 0 | [5] 0 | [6] 0 | [7] 0 | [8] 0 | [9] 0 | [10] 0 | [11] 0 | [12] 0 | [13] 0 | [14] 0 | [15] 0 | [16] 0 | [17] 0 | [18] 0 | [19] 0 | [20] 0

CC1=C2C(=O)O[C@@H](c3ccoc3)[C@]2(C)CCC1 [Fraxinellone] (10 µM)
inactive: [1] 0 | [2] 0 | [3] 0 | [4] 0 | [5] 0 | [6] 0 | [7] 0 | [8] 0 | [9] 0 | [10] 0 | [11] 0 | [12] 0 | [13] 0 | [14] 0 | [15] 0 | [16] 0 | [17] 0 | [18] 0 | [19] 0 | [20] 0

Cc1cc([C@H](C)Nc2ccccc2)c2oc(N3CCOCC3)cc(=O)c2c1 (10 µM)
inactive: [1] 0 | [2] 0 | [3] 0 | [4] 0 | [5] 0 | [6] 0 | [7] 0 | [8] 0 | [9] 0 | [10] 0 | [11] 0 | [12] 0 | [13] 0 | [14] 0 | [15] 0 | [16] 0 | [17] 0 | [18] 0 | [19] 0 | [20] 0
